# Measurements as given in patent US20170218379A1.
# Protein sequences, listed by entry. Tags and fused reporters are not part of them. Lines headed by an entry give the natural chain unless they say otherwise; changes in a name come on top.
# UniProt P03023: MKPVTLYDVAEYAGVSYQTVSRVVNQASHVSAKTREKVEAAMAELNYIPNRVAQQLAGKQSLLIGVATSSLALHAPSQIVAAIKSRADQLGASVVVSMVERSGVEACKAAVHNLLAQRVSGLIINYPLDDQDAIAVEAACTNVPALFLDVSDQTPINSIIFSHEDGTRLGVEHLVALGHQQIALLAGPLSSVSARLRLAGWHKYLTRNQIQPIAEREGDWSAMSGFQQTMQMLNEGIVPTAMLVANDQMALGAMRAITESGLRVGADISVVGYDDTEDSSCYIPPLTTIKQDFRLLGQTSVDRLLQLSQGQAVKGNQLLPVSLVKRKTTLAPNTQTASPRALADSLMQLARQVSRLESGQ
# Results are given in words; binding and its absence hold for the method and conditions named. Some results given as binding are weak or reduced against the parent protein; the word gives no strength.
# Experiments:
# [1] = target: EuLac dimeric lac repressor (lacI lacking the 11 C-terminal residues) with 6x Histidine tag (E. coli, strain K12) (UniProt P03023); assay: native (blue native) gel electrophoresis of purified His-tagged protein; self-association to a dimer
# [2] = target: EuLacTet lac repressor (tetrameric lacI repressor) with 6x Histidine tag (E. coli, strain K12) (UniProt P03023); assay: native gel electrophoresis; self-association to a tetramer
# [3] = target: EuLacTet lac repressor (tetrameric lacI repressor) with 6x Histidine tag (E. coli, strain K12) (UniProt P03023); assay: native (blue native) gel electrophoresis of purified His-tagged protein; self-association to a tetramer
Substance,binding [1],binding [2],binding [3]
EuLac dimeric lac repressor (lacI lacking the 11 C-terminal residues) with 6x Histidine tag (from UniProt P03023 1-349),binds,–,–
EuLacTet lac repressor (tetrameric lacI repressor) with 6x Histidine tag (from UniProt P03023 1-360),–,binds,binds
